The other results are listed elsewhere or left out.
target: OsWRKY34 (Oryza sativa, UniProt Q0JBA9 1-250); assay: protein-binding microarray (RPBM); PBS, 2% BSA, 51.3 ng/ul salmon testes DNA, 50 uM zinc acetate, 200 nM TF, 25 C, 1 h; high values mean tight binding; conditions: protein: recombinant; tags: N-terminal polyhistidine and DsRed monomer fusion (pET32a); label: CyDye5-dUTP incorporated in the synthesized complementary strand; 3' TTTTT single-stranded linker to array surface; dsDNA, one strand shown
Outline: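 Binding signal is defined as the fluorescence intensity of each feature in arbitrary units, read on an Axon 4000B scanner. Transcription factors with N-terminal polyhistidine and DsRed fusions came from E. coli BL21-CodonPlus and were purified on Ni–NTA. They were incubated at 200 nM for 1 h at 25 °C on a custom Agilent array that had been made double-stranded with Cy5-dUTP, with 50 µM zinc acetate present, and the array was washed.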

Sequences of proteins named here, by UniProt entry; tags and fusion partners are left off.
UniProt Q0JBA9, entry or part of it: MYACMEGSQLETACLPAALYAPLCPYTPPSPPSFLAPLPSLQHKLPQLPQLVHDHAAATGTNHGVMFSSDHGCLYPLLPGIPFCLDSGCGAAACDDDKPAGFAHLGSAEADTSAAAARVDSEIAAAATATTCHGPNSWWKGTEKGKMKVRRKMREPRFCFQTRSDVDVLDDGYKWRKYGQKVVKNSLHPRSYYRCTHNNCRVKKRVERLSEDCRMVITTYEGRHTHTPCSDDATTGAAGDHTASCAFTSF

Sequence | binding signal
TTCGTGTACCAAGACTTGAGTTGATCCTTTTTCGCCGCTCCGGAGTCACCTAGTGCAG | 8080 fluorescence intensity (a.u.)
CTTCTTCTTCTGCGGATTGTGGTGCTCGGTTTGGTCGGTGCGGAGTCACCTAGTGCAG | 9740 fluorescence intensity (a.u.)
ACTTGCAGTGATCTCCTATTTTCTGTGAGGTTCATTAACACGGAGTCACCTAGTGCAG | 8320 fluorescence intensity (a.u.)
GGTTTTATTTCTAATTAATTATTCCATTAGTCGTGATTTACGGAGTCACCTAGTGCAG | 8440 fluorescence intensity (a.u.)
GCATTTTAATCTCAGTTTAGTTGGAGGAGGTGGATATTTTCGGAGTCACCTAGTGCAG | 8260 fluorescence intensity (a.u.)
TAGTAGTACCATTCTTAATTCCTCTATCGAGCTTTATTTCCGGAGTCACCTAGTGCAG | 8620 fluorescence intensity (a.u.)
TATGCCCACGTTGGACGGAGCGGAGTTTGATTGCCCTATACGGAGTCACCTAGTGCAG | 8910 fluorescence intensity (a.u.)
CCAAACTCGTTGGCCGCCGCGCTCGCTTGCCGCTGCTCCGCGGAGTCACCTAGTGCAG | 8360 fluorescence intensity (a.u.)
GACTTCTTAGGTTACTTTGTTTTGGTTTAGGTAGCGCATTCGGAGTCACCTAGTGCAG | 8930 fluorescence intensity (a.u.)
TGGGCATCGAGGGCGGGTACCGCGGGTTCTACGCGCGCAACGGAGTCACCTAGTGCAG | 9880 fluorescence intensity (a.u.)
TACATCGACAATATTGCACTTCATATCATTGCCTCAATCTCGGAGTCACCTAGTGCAG | 11000 fluorescence intensity (a.u.)
ATCAGCCTATCACATGTTTTGTCTACCATTCCATTCCAAACGGAGTCACCTAGTGCAG | 15900 fluorescence intensity (a.u.)
ATCAGCTTACCATGTTCTTATTTCATTCCCTTTCCAATTACGGAGTCACCTAGTGCAG | 10300 fluorescence intensity (a.u.)
AGCCCTCTTTCCTACATCTTGGGCTCCATATATCCCCAGTCGGAGTCACCTAGTGCAG | 8870 fluorescence intensity (a.u.)
TCCTTGCTGGTGTTCGTGTTCCCATGATGAAGAAAATCCCCGGAGTCACCTAGTGCAG | 8470 fluorescence intensity (a.u.)
CGCGTCTCTACTCGCTCCGCCGCGCCGTCGTCTCTCCCGACGGAGTCACCTAGTGCAG | 9760 fluorescence intensity (a.u.)
GATGCTAATATTCTGGGTTGATATGTTGGTGAATGGTAATCGGAGTCACCTAGTGCAG | 8880 fluorescence intensity (a.u.)
TTTCCCGTTCCGCTCGGCGTCGGCTCCGACTCCGACGCCCCGGAGTCACCTAGTGCAG | 8740 fluorescence intensity (a.u.)
AGTTACATACTACACTATTAATACATGGTCCACCTGTCATCGGAGTCACCTAGTGCAG | 8150 fluorescence intensity (a.u.)
TTCCTCATTCTTTCCCTGCTGCAGTTCGGCCACGTCTACGCGGAGTCACCTAGTGCAG | 8900 fluorescence intensity (a.u.)
CTGGGATTTGGTGGAGCTCCTGCGGTGGGGTGCCAGTGATCGGAGTCACCTAGTGCAG | 12200 fluorescence intensity (a.u.)

Sequence | binding signal
GAGTTTCGCCGGTATTTTCTCACGGGTTCCGGCGCGGCGTCGGAGTCACCTAGTGCAG | 9020 fluorescence intensity (a.u.)
TTGCCTGTTCAAATTTTCTTTGTTGTGTCAGACGTATGCTCGGAGTCACCTAGTGCAG | 8370 fluorescence intensity (a.u.)
TACTGAAATACCTCCACAATCTGCACTGTTGTCACCTACTCGGAGTCACCTAGTGCAG | 9010 fluorescence intensity (a.u.)
GCATGCAGCCTACAAGAGATTGTAATATAGTATCGTTGTTCGGAGTCACCTAGTGCAG | 8050 fluorescence intensity (a.u.)
GCCGCCGCCGACCACTCTCCTCCGCGTCCGCCTCGTCGCCCGGAGTCACCTAGTGCAG | 8740 fluorescence intensity (a.u.)
AGTGCTTGTTGGACTTGTGTCTGGTTCATTTATGCATAATCGGAGTCACCTAGTGCAG | 11200 fluorescence intensity (a.u.)
GTGCTCAGGGTTTTAAATTTCGAAACTTGGTTTTCTGCCACGGAGTCACCTAGTGCAG | 8040 fluorescence intensity (a.u.)
CCATCTTCTTCTGGCGAATCATGTCGACCACCAGCCCGGCCGGAGTCACCTAGTGCAG | 8310 fluorescence intensity (a.u.)
GGTGGTGGGCTGGTGGCGTATAGTCTTGAACTTACGCCAACGGAGTCACCTAGTGCAG | 9760 fluorescence intensity (a.u.)
TCCACCGCCCGTACTCCTATCGCAATGACACTCTGCCTTCCGGAGTCACCTAGTGCAG | 8890 fluorescence intensity (a.u.)
GTCCTCTTCTTCGATTCCTCCTCTGTTCTCGCTGGCCGTACGGAGTCACCTAGTGCAG | 8180 fluorescence intensity (a.u.)
CCCACTCGCTCTCTCTCTCTTCCGTCGCACCCTCTCTCTCCGGAGTCACCTAGTGCAG | 14100 fluorescence intensity (a.u.)
TGCTGTTCTTGCCACCCTCTTTTTGCTTGCTCTACCATTGCGGAGTCACCTAGTGCAG | 8200 fluorescence intensity (a.u.)
GAGCATCTCCTATATTCATAGATTTTCACCATTGATCTTTCGGAGTCACCTAGTGCAG | 9010 fluorescence intensity (a.u.)
TATCTCGTGAATTAGCTTTTATTTATGTAATTAGTTTTGTCGGAGTCACCTAGTGCAG | 8890 fluorescence intensity (a.u.)
TACTTGTTCCCGTACACCAGCACGCCCGTATGCCTACACACGGAGTCACCTAGTGCAG | 9330 fluorescence intensity (a.u.)
TTCCTTCTTTCTTTTATTTCGTTGTACTTTAATTTGATATCGGAGTCACCTAGTGCAG | 8980 fluorescence intensity (a.u.)
CTCGCTCGCTAGGGTTTTGTCTCGATCGGGCGGGGCCTGTCGGAGTCACCTAGTGCAG | 9610 fluorescence intensity (a.u.)
CAGATATTATATTACGTAACATCTTCGTCAAGCTTACAATCGGAGTCACCTAGTGCAG | 8860 fluorescence intensity (a.u.)
TAATTTTTTTGTCACATCGAACTTTTCTACATACACAAACCGGAGTCACCTAGTGCAG | 8800 fluorescence intensity (a.u.)
TGTATCACATCTTGCTCTATGTTTGTTTTTTTTCGGACGGCGGAGTCACCTAGTGCAG | 11400 fluorescence intensity (a.u.)

Sequence | binding signal
CTCTTCCTTGTTGGGCCGAGCCCGCGACACGACCTCGACTCGGAGTCACCTAGTGCAG | 8270 fluorescence intensity (a.u.)
TTTTCTCCCACCATACACAATGCCAAGTTCTGTTTTTTTTCGGAGTCACCTAGTGCAG | 9370 fluorescence intensity (a.u.)
GCACCTGGCCCCTCGCCGGCCGGTTCACCGACGCCAGGTGCGGAGTCACCTAGTGCAG | 8920 fluorescence intensity (a.u.)
ACGCTGACTTAGTCTCCCATCCACGGTGGTACGGCATTCACGGAGTCACCTAGTGCAG | 8790 fluorescence intensity (a.u.)
GTAGAGAGGGTTTTCCAGTAGTTTTTGTTTGTTGTTGATGCGGAGTCACCTAGTGCAG | 8310 fluorescence intensity (a.u.)
ACCTGCATCTGTTTCTCTTTTACTTCACCTGTGATCGGGGCGGAGTCACCTAGTGCAG | 10200 fluorescence intensity (a.u.)
TTTTCCTTGTCAATCCGACAGTCGGAGTCCTGAATATCGGCGGAGTCACCTAGTGCAG | 8160 fluorescence intensity (a.u.)
AAAAATGTTTCCGTGGTTCGTCACCCGTGTTTAAGTCGGTCGGAGTCACCTAGTGCAG | 8230 fluorescence intensity (a.u.)
ACGCCGTTAACTTTTTATCCAATGTTTGACCATTCGTCTTCGGAGTCACCTAGTGCAG | 13000 fluorescence intensity (a.u.)
CATTTACCTCCATTATATTATAGCTTTCTCTCTCTTTTTTCGGAGTCACCTAGTGCAG | 11000 fluorescence intensity (a.u.)
GTAATAGTACTACACTACTACTCCACCATGTCCATCGCACCGGAGTCACCTAGTGCAG | 9120 fluorescence intensity (a.u.)
TTTGTAGTTGATTTTTTTTTATTCTAAGTCATTTTTTTTCCGGAGTCACCTAGTGCAG | 9250 fluorescence intensity (a.u.)
TACACGCACATACCGTCTTTTTTGGCAGTTTCCTTTGACACGGAGTCACCTAGTGCAG | 9840 fluorescence intensity (a.u.)
ATTCCGCTCACTCCCTCGGAAATTTCGTACCCATATCTTACGGAGTCACCTAGTGCAG | 9490 fluorescence intensity (a.u.)
TGATTGTCTTTTCACGGAGTTGGTTGTTTTGTTGTTGAACCGGAGTCACCTAGTGCAG | 10600 fluorescence intensity (a.u.)
CTACTGAGCTTTTGAATTTTTTTTCACGTCTTATTAAATGCGGAGTCACCTAGTGCAG | 9770 fluorescence intensity (a.u.)
AGGCCTCCACGGCTCCACCTCCTTCCGCTTTCGCCTATCCCGGAGTCACCTAGTGCAG | 10000 fluorescence intensity (a.u.)
TGTTCTTCCAAGTTCCGACGTAGATCAAGTGGTCAGCACCCGGAGTCACCTAGTGCAG | 8090 fluorescence intensity (a.u.)
GATATACACACTTAGCTCTCCTACTGTGAGAATTCTCTTCCGGAGTCACCTAGTGCAG | 9480 fluorescence intensity (a.u.)
CGTACGTCGCCTCGAAATGGATCCACGGTCACACACACTGCGGAGTCACCTAGTGCAG | 8360 fluorescence intensity (a.u.)
TTAATGTTCAGTCCTTGTGTGTAGCCTTGCCGGTGCAAACCGGAGTCACCTAGTGCAG | 8510 fluorescence intensity (a.u.)

Sequence | binding signal
CCACCGCCTCTACTAAACCCTCCGCCGCCGCCGCCGCCGCCGGAGTCACCTAGTGCAG | 8660 fluorescence intensity (a.u.)
GCAAGAGAAATCCTTCTCCATTGTCACTGTGTCAGTTTGTCGGAGTCACCTAGTGCAG | 9550 fluorescence intensity (a.u.)
GCGCTCACTTTTCAGCTCATCACTCCGTCACCTCGTGCTCCGGAGTCACCTAGTGCAG | 8700 fluorescence intensity (a.u.)
TAGGGAAGGGTTTTTTTTTCTTAGTAAGAGTTTAGCAAAGCGGAGTCACCTAGTGCAG | 10400 fluorescence intensity (a.u.)
GGTTAGATGGGCCGACTCCGCGTTTCTACCTCGGCCCAATCGGAGTCACCTAGTGCAG | 9760 fluorescence intensity (a.u.)
CAGGTCCATGTTACTTTTCTCCATTCATTCACACGCTCCACGGAGTCACCTAGTGCAG | 8120 fluorescence intensity (a.u.)
AAACTAACTCACCTTGTGAATCGTTGTGGACTCTTTGTTGCGGAGTCACCTAGTGCAG | 8070 fluorescence intensity (a.u.)
GAATCTAGATGCTGTTCCATCTCCAAATGTTCAAACCCTCCGGAGTCACCTAGTGCAG | 8360 fluorescence intensity (a.u.)
AAATATTGAACCCTGCCTGTTTGTGACTTTTCAAATTTTTCGGAGTCACCTAGTGCAG | 8520 fluorescence intensity (a.u.)
TGCTGCACGCCGCCGCCGAGTAGTCGTCGTCACCATTGTTCGGAGTCACCTAGTGCAG | 8530 fluorescence intensity (a.u.)
TCATCTTTGCCAATTCCATCTTTCTTCTGTTCTCCTTTCCCGGAGTCACCTAGTGCAG | 9700 fluorescence intensity (a.u.)
CCGCGATAGTTCATGTGGGTAATTCGTACTTTTTCCTATACGGAGTCACCTAGTGCAG | 11700 fluorescence intensity (a.u.)
AGTGCTTGTGTAGTTGTGTCGCGTGTGTGTCTGAGAGAGACGGAGTCACCTAGTGCAG | 16000 fluorescence intensity (a.u.)
TTCCACTGATTCCACCAATTCTGCCGCTGTTGGATCTCCACGGAGTCACCTAGTGCAG | 9860 fluorescence intensity (a.u.)
ACACACGCACACACTTATCAGTTCTCACCCAAGCCTACCCCGGAGTCACCTAGTGCAG | 9770 fluorescence intensity (a.u.)
TCTCTCTGGTGTGGGGCCCCACTCTTTATATCATCACCACCGGAGTCACCTAGTGCAG | 10700 fluorescence intensity (a.u.)
CGTTTTCCCGCCACCACCACGCAATCTCAGCCGTCCGATCCGGAGTCACCTAGTGCAG | 9130 fluorescence intensity (a.u.)
CTCTCTCTCTCTCTCTCTCTCGCCGCCTCAAACTTTGATTCGGAGTCACCTAGTGCAG | 10700 fluorescence intensity (a.u.)
CTTTTTTTAGTCGTCTTGGTTCAGTTTCCTGGTTGCTTCTCGGAGTCACCTAGTGCAG | 13700 fluorescence intensity (a.u.)
TCCACCCAACATCTTTTTTCTCAGCCGTCGTCTCATCTCGCGGAGTCACCTAGTGCAG | 13200 fluorescence intensity (a.u.)
CCAGATTCATAGCAGATATGTGATGTCCCATACTTTTTTTCGGAGTCACCTAGTGCAG | 8380 fluorescence intensity (a.u.)

A portion from further up, as a working copy:
Sequence | binding signal
CAGATATTATATTACGTAACATCTTCGTCAAGCTTACAATCGGAGTCACCTAGTGCAG | 8860 fluorescence intensity (a.u.)
TAATTTTTTTGTCACATCGAACTTTTCTACATACACAAACCGGAGTCACCTAGTGCAG | 8800 fluorescence intensity (a.u.)
TGTATCACATCTTGCTCTATGTTTGTTTTTTTTCGGACGGCGGAGTCACCTAGTGCAG | 11400 fluorescence intensity (a.u.)
